Experiments:
Design in all cases: species or system dog
[1] = Semi-quantitative LC-HRMS analysis of urinary progestogen glucuronides; settings: for amount found in dog urine: m/z 495 [M-H]-, diestrus phase urine
[2] = Quantitative measurement of urinary 5α-PtG with LC-HRMS
[3] = Urinary rapid test (lateral flow immunochromatographic test) for 5α-PtG detection; settings: anestrus phase sample set as 100%
[4] = urine, eight bitches, EIC area m/z 495

5β-pregnane-3α,6α,20α/β-triol-glucuronides
area of the corresponding peak from the abundant urinary PtG metabolite ([1]; dog urine, diestrus phase, EIC m/z 511): 0.9-1.1%
amount found in dog urine [1]: Only traces

5β-pregnane-3α,20β-diol glucuronide [PdGβ]
average ratio between PdGβ and PdGα [1, 4]: 5.0
ratio between PdGβ and PdGα, range [1, 4]: 1.0-14.7
area of PdGβ (extracted ion chromatogram) from the area of 5α-PtG, average ([2]; urine, average in eight bitches): 4.3%

C[C@@H](O)[C@H]1CC[C@H]2[C@@H]3C[C@H](O[C@@H]4O[C@H](C(=O)O)[C@@H](O)[C@H](O)[C@H]4O)[C@H]4C[C@@H](O)CC[C@]4(C)[C@H]3CC[C@]12C [5α-PtG, 5α-pregnane-3β,6α,20β-triol-6-O-β-D-glucuronide]
average concentration of urinary 5α-PtG (sum of PtG1 and PtG2) ([2]; four days after ovulation, eight bitches): 2.5 µM
increase of 5α-PtG concentration ([2]; from beginning of LH peak to estimated onset of ovulation, vs average before estimated LH peak): over 100%
increase of 5α-PtG concentration ([2]; six-day period, from -2 to +4 days from estimated onset of ovulation): 800%
intensity of the test line ([3]; diestrus phase urine): ~10%
intensity of the test line ([3]; oestrus phase urine): ~50%
intensity of the test line ([3]; proestrus phase urine): approximately 90%

C[C@H](O)[C@H]1CC[C@H]2[C@@H]3CC[C@@H]4C[C@H](O[C@@H]5O[C@H](C(=O)O)[C@@H](O)[C@H](O)[C@H]5O)CC[C@]4(C)[C@H]3CC[C@]12C [PdG, 5β-pregnane-3α,20α-diol-3-glucuronide]
amount found in dog urine [1]: only in traces
